From patent US20230331829A1 (KOREA ADVANCED INSTITUTE OF SCIENCE AND TECHNOLOGY, published 2023) come the findings set out here.

In this assay the target is C-terminal recombinant protein including the homeodomain of the PROX1 protein. The assay is described as follows: chicken antibody phage display screening.

Results are given in words; binding and its absence hold for the method and conditions named. A result given as binding can be weak or reduced; the word gives no strength. Tags and fused reporters may be left off the sequences shown.

B1: anti-PROX1-single chain Fv-His (clone #1A11) (scFv, V domains shown)
VH: AVTLDESGGGLQTPGGGLSLVCKASGFTFSSYAMNWVRQAPGKGLEWVAAIDDDGSYTGYGSAVKGRATISRDNGQSTVRLQLNNLRAEDTAIYYCAKAAGSGYCYRGANSSYTCGTYNAGDIDAWGHGTEVIVSS
VL: LTQPSSVSANLGETVEITCSGGSGSYGWYQQKSPGSAPVTLIYDNANRPSNIPSRFSGSKSGSTGTLTITGVRAEDEAVYYCGNVDSSTYVGMFGAGTTLTVL
notes: One polypeptide (scFv from a chicken antibody phage display library) with a hexa-histidine tag; used as phage periplasmic supernatant; also called anti-PROX1-scFv-His; scFv-His
Consider B1, for which the binding entry is “binds”.
